From ChEMBL document CHEMBL3988442, “University of Dundee, Small-Polar-MMV Screening Library” (2021).

Amino acid sequences for entries named in this document (tags omitted).
UniProt P9WPC5, whole entry: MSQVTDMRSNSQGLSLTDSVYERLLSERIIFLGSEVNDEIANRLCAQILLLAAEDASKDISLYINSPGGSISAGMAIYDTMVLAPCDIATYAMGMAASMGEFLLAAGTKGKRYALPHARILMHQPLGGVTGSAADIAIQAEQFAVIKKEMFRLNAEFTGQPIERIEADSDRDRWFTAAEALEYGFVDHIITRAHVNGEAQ
UniProt P9WPC3, whole entry partner: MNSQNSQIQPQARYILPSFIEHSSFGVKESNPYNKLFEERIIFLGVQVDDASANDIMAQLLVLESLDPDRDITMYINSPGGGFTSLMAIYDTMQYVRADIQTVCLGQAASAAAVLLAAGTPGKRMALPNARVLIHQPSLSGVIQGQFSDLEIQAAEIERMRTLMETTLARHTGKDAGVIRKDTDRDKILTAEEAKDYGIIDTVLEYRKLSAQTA
UniProt P9WNZ1, whole entry: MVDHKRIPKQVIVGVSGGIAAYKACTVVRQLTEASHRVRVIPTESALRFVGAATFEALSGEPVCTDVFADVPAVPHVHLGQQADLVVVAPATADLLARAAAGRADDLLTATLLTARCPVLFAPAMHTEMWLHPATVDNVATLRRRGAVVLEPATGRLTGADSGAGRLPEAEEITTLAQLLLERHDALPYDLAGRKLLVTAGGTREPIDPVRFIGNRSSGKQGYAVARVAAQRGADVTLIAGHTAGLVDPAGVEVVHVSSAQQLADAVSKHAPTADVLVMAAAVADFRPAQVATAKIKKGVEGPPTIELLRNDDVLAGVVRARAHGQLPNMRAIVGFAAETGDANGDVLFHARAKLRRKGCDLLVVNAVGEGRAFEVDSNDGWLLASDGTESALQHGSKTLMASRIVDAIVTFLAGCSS

Values are the deposited “Percent Effect”, in %.
The controls that fix the scale are not given in the record; negative values are as filed.
This is an unselected part of the compounds tested.
Two or more numbers in one place are separate tests of the same structure; such repeats can differ widely.

ClpP1P2: 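ClpP1P2, Mycobacterium tuberculosis (UniProt P9WPC5 and UniProt P9WPC3). Protease assay of ClpP1P2, read by the AMC dye that it sets free. Concentration: 50 µM. Higher reads as stronger inhibition, judged from the few compounds that gave an IC50. Most other retested compounds had strongly negative values. Size under these conditions: about 69,000 compounds, about 10 of them at 50% or above in at least one test.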
CoaBC: 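Enzyme assay of CoaBC with a phosphate dye (Biomol Green) read at 650 nm. Target: Coenzyme A biosynthesis protein CoaBC, Mycobacterium tuberculosis (UniProt P9WNZ1). Concentration: 30 µM. Higher reads as stronger inhibition, judged from the few compounds that gave an IC50. Most strong results did not repeat in a second test. Of about 67,000 compounds tested this way, about 40 (0.06%) reached 50% or more in at least one test.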

| structure | ClpP1P2 | CoaBC |
|---|---|---|
| `Fc1ccc(NCc2ccncc2)c(OC(F)F)c1` | -12.81% | 5.769% |
| `CCCn1ccnc1SCCNS(=O)(=O)c1ccccc1` | -8.204% | -0.8783% |
| `O=C(Nc1ccc(I)cc1C(=O)NCCN1CCOCC1)c1ccco1` | -3.208% | -3.808% |
| `COCCN1CCN(C(=O)C[C@@H]2C[C@@H](C(C)C)[C@H](CC#N)C=C2C)CC1` | -9.19% | 7.449% |
| `CC1CCN(c2ccc(C(=O)N3CCCC3c3ccc[nH]3)cn2)CC1` (centres undefined) | -9.321% | 22.04% & 28.57% |
| `Cc1csc(N2CCN(CC(=O)NCc3ccccn3)CC2C)n1` (centres undefined) | -43.13% | 4.608% |
| `CC(=O)N1CCN(c2cc(C)ncn2)CC(CO)C1` (centres undefined) | -14.91% | 0.7884% |
| `CCC(Nc1ccc(Oc2ccccc2OC)cc1)C(N)=O` (centres undefined) | 2.883% | 6.048% |
| `Cc1ccc(OCC(=O)Nc2ncccc2OC(F)F)cc1` | -4.503% | 2.564% |
| `COc1ccccc1C(=O)Nc1c(C)cnn1CC1CC1` | 2.954% | -0.978% |
| `O=C(c1ccco1)N1CCC2(CCCN(c3ncc(F)cn3)C2)C1` (centres undefined) | -15.56% | -10.62% |
| `Cc1cc(NC(=O)N2CCOCC2)nn1-c1cccc(Cl)c1` | -3.706% | 1.096% |
| `Cc1ccccc1C(=O)N1CC[C@@H](N(C)C)[C@@H]1Cc1cnn(C)c1` | 16.98% | 0.5% |
| `CCN1C(=O)CCC12CCN(S(=O)(=O)c1ccccc1)CC2` | -4.384% | 3.562% |
| `CC(C)CS(=O)(=O)CC(=O)N(C)Cc1ccc(OC(F)F)cc1` | -5.35% | -7.036% |
| `CCc1ccc(C(=O)N2CCCC(c3nn[nH]n3)C2)cc1` (centres undefined) | -4.566% | -0.2198% |
| `CC(C)S(=O)(=O)NCC1CCCN(C(=O)c2ccc(Cl)cc2)C1` (centres undefined) | -5.646% | 0% |
| `FC(F)(F)c1cc(C2CCN(c3cnccn3)CC2)n2ccnc2n1` | -63.9% | 1.142% |
| `CN(Cc1ccc([S+](C)[O-])cc1)c1ccc(Cl)cn1` (centres undefined) | -20.47% | -1.463% |
| `O=C1CNc2ncnc(Nc3cnn(Cc4ccc(F)cc4)c3)c2N1` | -11.09% | 0.7229% |
| `Cn1ccnc1CN1C[C@@H](CN2CCCCCC2)[C@@H](CO)C1` | -8.687% | -34.74% |
| `O=C(Cc1ccccc1)N1CCCC2(COCCN(CC3CC3)C2)C1` (centres undefined) | 6.876% | -6.582% |
| `O=C(CC(F)(F)F)N1C[C@H]2CC[C@@H]1CN(Cc1ccccc1)C2` | -0.402% | 6.79% |
| `CC(C)c1nnc2n1CC(CNCc1nc3ccccc3s1)CC2` (centres undefined) | -7.634% | -5.166% |
| `CCOc1ccccc1C1=CCN(C(=O)C2CCN(C)C(=O)C2)CC1` (centres undefined) | -25.75% | 1.66% |
| `Cc1nnsc1C(=O)N1CC[C@H](c2ccccc2)[C@@H]2[C@H]1CCCCN2C` | -1.123% | -0.2451% |
| `Cc1cccc(Nc2cc(C)nc(C3CCCCN3CC(N)=O)n2)n1` (centres undefined) | -9.511% | 3.155% |
| `CCC(CO)N(Cc1ccco1)C(=O)c1cccc(C)c1O` (centres undefined) | -5.581% | 9.671% |
| `Cc1nc(C)c(CC(=O)N2C[C@H]3CC[C@@H]2CN(c2cnccn2)C3)s1` | 2.636% | -0.6148% |
| `Cc1nc(CC(C)C)sc1C(=O)N1CCC(C2(C)OCCO2)CC1` | -6.704% | -9.96% |
| `O=S(=O)(Cc1ccccc1)NCCNc1ccc(-n2cccc2)nn1` | -4.804% | 4.017% |
| `CS(=O)(=O)N1CCCn2nc(CNc3cc(C#N)ccn3)cc2C1` | -14.16% | 7.54% |
| `Cc1noc([C@@]23CCO[C@@H]2CCN(C(=O)CN(C)C)C3)n1` | -12.42% | 4.516% |
| `COCC1N(S(=O)(=O)c2cn(C)cn2)[C@H]2CC[C@]1(O)CC2` (some centres undefined) | -5.696% | -2.906% |
| `Cc1cc(CS(=O)(=O)C(C)c2ccc(F)cc2)on1` (centres undefined) | 9.664% | 2.917% |
| `CC(=O)NC1CCCN(C(=O)CNc2cc(Cl)cc(Cl)c2)C1` (centres undefined) | -9.849% | 2.273% |
| `COc1ccc(CNC(=O)CNc2cc3c(cc2Cl)OCCCO3)cc1` | -15.95% | 3.524% |
| `O=C(C[S+]([O-])C1CCCC1)NCCOc1cccc(Cl)c1` (centres undefined) | 3.783% | 0.2415% |
| `CS(=O)(=O)NC[C@]12COC[C@H]1CN(C(=O)C1CCCCC1)C2` | 5.918% | 3.599% |
| `CCc1nc(CN2CCCN(c3ncnc4sccc34)CC2)no1` | -6.002% | 2.314% |
| `c1cnn(CCNCc2cnc(N3CCCC3)nc2)c1` | 3.497% | 1.392% |
| `CC(C)(C)NC(=O)CCOc1cccc(F)c1` | -15.64% | 3.325% |
| `CN(C)C(=O)C1(CCCc2ccccn2)CCN1Cc1nccn1C` (centres undefined) | -37.26% | -3.398% |
| `CC(C)N1CCN(C(=O)Cc2csc(-c3ccco3)n2)CC1` | -5.027% | -1.654% |
| `Cc1csc2c(=O)n3c(nc12)CCN(C(=O)c1ccnn1C)CC3` | -7.566% | 0% |
| `COc1cc(C(=O)NCc2cc(N3CCOCC3)ncn2)ccn1` | -12.55% | 7.933% |
| `CC(C)CC(C#N)NC(=O)COC1CCCCC1` (centres undefined) | 1.052% | 0% |
| `CN(Cc1cnn(C)c1)C(=O)NC1CCC(O)CC1` (centres undefined) | -5.255% | 9.283% |
| `COc1ccc(C(C)N(C)Cc2nc3c(cnn3C)c(=O)[nH]2)cc1` (centres undefined) | -31.75% | 9.589% |
| `CN(Cc1cnn(C)c1)C(=O)CN1CCCC1Cn1cncn1` (centres undefined) | -6.06% | 8.161% |
| `Cc1nc(CNC(=O)Nc2ccc3c(c2)CCCN3C)sc1C` | -8.661% | -1.499% |
| `Cc1csc([C@@H]2C[C@@H]3CCN(Cc4cnn(C)c4)C[C@H]3O2)n1` | 13.45% | 0.9091% |
| `N#CC1CCN(C(=O)NCCc2ccc(Cl)s2)CC1` | 2.723% | 4.962% |
| `Cc1nc(CCNC2CCN(Cc3ccccc3)C2)sc1C` (centres undefined) | -6.338% | 2.583% |
| `Cc1nc(CNC(=O)Nc2ccc3c(c2)CCCC(=O)N3)sc1C` | 0.8615% | 4.069% |
| `Cc1cc(C)n(Cc2cc(C(=O)N3CCCC3c3ccccn3)n[nH]2)n1` (centres undefined) | -4.791% | -1.094% |
| `COCCC(=O)N(Cc1ccccn1)Cc1ccccc1C` | 0.5763% | 2.781% |
| `O=C(O)[C@@H]1CN(CC(=O)N2CCCCCC2)C[C@H]1c1ccc(F)cc1` | 5.11% | 0.6148% |
| `CC(C)Cn1nc2ccc(S(=O)(=O)N3CCC(C)CC3)cn2c1=O` | -12.3% | -1.211% |
| `CCOc1ccccc1C(=O)Nc1cccc(C[S+](C)[O-])c1C` (centres undefined) | 11.33% | -23.71% |
| `CCOc1ccccc1OC1CCN(C(=O)c2cnns2)CC1` | -16.74% | 4.592% |
| `Cc1nc(C)n(CC2CN(Cc3cc(C#N)ccc3F)CCO2)n1` (centres undefined) | -34.22% | 6.769% |
| `Cc1ccc(NC(=O)CNC(C)CN2CCCCC2)c(F)c1` (centres undefined) | 13.15% | 3.018% |
| `O=C(NCc1cccnc1)[C@@H]1CC[C@@H]2[C@@H](CCN2c2ncc(F)cn2)O1` | -2.271% | 3.832% |
| `COCCN1CC(C(=O)Nc2ccc3c(c2)CCC(=O)N3C)CC1=O` (centres undefined) | -21.39% | -3.037% |
| `O=C(c1ccncc1)N1CCC2(CC1)CCN(C(=O)c1cccnc1)C2` | 2.156% | 2.963% |
| `COc1ccc(-n2nnc(C(=O)NCC3CCCCC3)n2)cc1` | 2.503% | 1.903% |
| `Cc1oncc1C(=O)N1CC[C@H]2[C@@H]1CCC(=O)N2c1cccnc1` | -6.456% | 6.057% |
| `CCOCc1nc2c(c(NC(CC)c3cccnc3)n1)CCNCC2` (centres undefined) | -4.645% | -27.71% |
| `CC(=O)N(c1ccc(C)cc1)c1nc(CN2CCCC(C)C2)cs1` (centres undefined) | -9.955% | 3.44% |
| `N#CCCN(CCC#N)C(=O)c1ccc(OCC2CC2)cc1` | 3.695% | 7.592% |
| `CC1CCN(C)c2ccccc2N1C(=O)c1ccnc(-n2cncn2)c1` (centres undefined) | -14.64% | 5.38% |
| `CCN(CC)C(=O)CN1CCc2nc(C3CCNCC3)nc(NC)c2C1` | -12.55% | -18.04% |

The first 4 entries again:

{"structure": "Fc1ccc(NCc2ccncc2)c(OC(F)F)c1", "ClpP1P2": -12.81, "CoaBC": 5.769}
{"structure": "CCCn1ccnc1SCCNS(=O)(=O)c1ccccc1", "ClpP1P2": -8.204, "CoaBC": -0.8783}
{"structure": "O=C(Nc1ccc(I)cc1C(=O)NCCN1CCOCC1)c1ccco1", "ClpP1P2": -3.208, "CoaBC": -3.808}
{"structure": "COCCN1CCN(C(=O)C[C@@H]2C[C@@H](C(C)C)[C@H](CC#N)C=C2C)CC1", "ClpP1P2": -9.19, "CoaBC": 7.449}